According to paper PMC3679034:
These are yes or no findings as the source states them, for the method shown. In cells and extracts the contact can be indirect. Some results given as binding are weak or reduced against the parent protein; the word gives no strength. Tags and fused reporters may be left off the sequences shown.

Target: T1, FLAG-GLUT1 (UniProt P11167)
T1 sequence: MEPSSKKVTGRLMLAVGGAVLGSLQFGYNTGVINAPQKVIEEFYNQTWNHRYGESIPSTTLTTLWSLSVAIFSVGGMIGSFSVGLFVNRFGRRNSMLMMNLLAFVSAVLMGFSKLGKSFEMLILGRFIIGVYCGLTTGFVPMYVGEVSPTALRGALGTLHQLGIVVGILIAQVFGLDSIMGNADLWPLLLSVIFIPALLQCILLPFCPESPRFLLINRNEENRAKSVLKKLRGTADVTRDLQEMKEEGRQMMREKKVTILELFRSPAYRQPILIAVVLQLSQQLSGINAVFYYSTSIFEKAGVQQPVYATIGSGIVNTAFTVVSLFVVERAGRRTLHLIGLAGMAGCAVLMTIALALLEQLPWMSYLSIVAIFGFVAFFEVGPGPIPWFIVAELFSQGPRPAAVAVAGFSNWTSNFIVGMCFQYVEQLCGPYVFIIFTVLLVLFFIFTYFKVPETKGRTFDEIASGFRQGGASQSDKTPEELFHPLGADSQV
Assay: co-IP; lysates of L6 myoblasts transiently transfected with FLAG-GLUT1 constructs, treated for one hour with vehicle (DMSO), 6 µM CP466722 (ATM inhibitor) or 1 µM doxorubicin (ATM activator); FLAG antibodies overnight at 4°C, protein A sepharose 4 hours at 4°C, five washes with lysis buffer (50 mM HEPES pH 7.4, 150 mM NaCl, 1% Triton X-100); Western blot for GIPC1 and stomatin

binding: binds
B1: Gα-interacting protein-interacting protein, C-terminus (GIPC1) (protein, UniProt Q9Z254 1-333)
chain: MPLGLGRRKKAPPLVENEEAEPSRSGLGVGEPGPLGGSGAGESQMGLPPPPASLRPRLVFHTQLAHGSPTGRIEGFTNVKELYGKIAEAFRLPAAEVMFCTLNTHKVDMDKLLGGQIGLEDFIFAHVKGQRKEVEVFKSEDALGLTITDNGAGYAFIKRIKEGSVIDHIQLISVGDMIEAINGQSLLGCRHYEVARLLKELPRGRTFTLKLTEPRKAFDMISQRSSGGHPGSGPQLGTGRGTLRLRSRGPATVEDLPSAFEEKAIEKVDDLLESYMGIRDTELAATMVELGKDKRNPDELAEALDERLGDFAFPDEFVFDVWGAIGDAKVGRY
